According to PubChem BioAssay AID493014 (National Center for Advancing Translational Sciences (NCATS), 2011):
The list shows a part of the results. These are further read-outs of the screen, such as a control signal, another cell line or another target. No call is given for them. The list favours compounds with an active or inconclusive main result. The note in brackets gives the kind of curve behind each potency; many fits are weak.

Experiment: qHTS Assay to Find Inhibitors of Chronic Active B-Cell Receptor Signaling
Conditions: ABC-DLBCL IkBa-CBG/CBR reporter, luminescence ratio (green luciferase fused to IkBa over red control in TMD8 lymphoma cells), 4 h
Outline: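 Concentration-response series (up to 46 uM) were applied to TMD8 dual-reporter cells for 4 h at 37C with doxycycline. Green/red ratio, after filter-overlap correction, defined %Activity; red signal alone was normalised to basal cells and zero luminescence.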

[1] = measured here: CBR red luminescence, cell number

Compound	AC50 [1]	AC50 (measured here: IkBa-CBG green luminescence)
COCCCN(C(C)=O)c1nc(-c2ccc(OC)cc2)cs1	4.47 µM [rising, full curve, poor fit]	
O=C(CCCN1C(=O)/C(=C/c2cccs2)SC1=S)NNC(=O)c1ccncc1	2.51 µM [falling, full curve, poor fit]	
Cc1ccc(S(=O)(=O)Nc2c(NC3CCCCC3)c3ccccc3oc2=O)c(C)c1	14.1 µM [falling, partial curve]	
O=C1C(Cl)=C(Nc2ccc3cn[nH]c3c2)C(=O)c2ccccc21	7.08 µM [falling, partial curve, poor fit]	7.08 µM [rising, full curve, poor fit]
O=C(/C=C\Nc1ccc2c(c1)OCO2)c1cccs1	14.1 µM [falling, partial curve, poor fit]	
COc1ccccc1-c1ccc(NC2CCCCC2)nn1	2.06 µM [rising, partial curve, poor fit]	
CCC(CC)C(=O)c1c[nH]c(C(=O)NCc2ccccn2)c1	15.8 µM [rising, partial curve, poor fit]	
Cc1cccc(CN2C[C@]34C=C[C@@H](C[C@@H]3S2(=O)=O)O4)c1	5.01 µM [rising, single point]	
Cc1ccc(NC(=O)c2nn(C34CC5CC(CC(C5)C3)C4)cc2[N+](=O)[O-])cc1	5.62 µM [falling, partial curve]	
CN(CC(=O)N1CCN(c2ccc(F)cc2)CC1)S(=O)(=O)c1ccc(F)cc1	1.84 µM [rising, full curve, poor fit]	
CCOc1ccc(-c2c(=O)n(OCc3nc4ccccc4[nH]3)c3ccccc3[n+]2[O-])cc1	5.62 µM [rising, partial curve, poor fit]	
COC(=O)c1ccc(/C=N\NC(=O)c2ccc(C)cc2Cl)cc1	6.31 µM [falling, partial curve, poor fit]	
Cc1cc(N=NC(=O)c2ccccc2O)c2ccccc2c1O	0.0891 µM [falling, full curve, poor fit]	
O=C(Nc1ccccc1Cl)c1ccccc1Cl	0.562 µM [rising, full curve, poor fit]	
O=C(CSc1ncn[nH]1)Nc1ccc2c(c1)OCCO2	0.0058 µM [falling, full curve, poor fit]	
O=S(=O)(CCOc1ccccc1)N1CCOCC1	14.6 µM [rising, partial curve, poor fit]	
COc1ccccc1NC(=O)C/C(C)=N/NC(=O)COc1c(Br)cc(Br)cc1OC	11.2 µM [falling, partial curve, poor fit]	

Quoted at random: 2 records from the list
Compound	AC50 [1]	AC50 (measured here: IkBa-CBG green luminescence)
CCOc1ccc(-c2c(=O)n(OCc3nc4ccccc4[nH]3)c3ccccc3[n+]2[O-])cc1	5.62 µM [rising, partial curve, poor fit]	
Cc1cc(N=NC(=O)c2ccccc2O)c2ccccc2c1O	0.0891 µM [falling, full curve, poor fit]	
